Laboratory results: paper doi:10.1101/2022.10.16.511936
Results are given in words; binding and its absence hold for the method and conditions named. Binding can be weak; no strength is given.

Target: N-terminal part of AtEH1/Pan1 (AA 1-527) in pGBKT7 (Arabidopsis)
Assay: two-hybrid

- binding: binds
B1: cytoplasmic part of CLV1 (AA 671-980) in pGADT7 (domain or fragment, UniProt Q9SYQ8 671-980)
chain: LAWKLTAFQKLDFKSEDVLECLKEENIIGKGGAGIVYRGSMPNNVDVAIKRLVGRGTGRSDHGFTAEIQTLGRIRHRHIVRLLGYVANKDTNLLLYEYMPNGSLGELLHGSKGGHLQWETRHRVAVEAAKGLCYLHHDCSPLILHRDVKSNNILLDSDFEAHVADFGLAKFLVDGAASECMSSIAGSYGYIAPEYAYTLKVDEKSDVYSFGVVLLELIAGKKPVGEFGEGVDIVRWVRNTEEEITQPSDAAIVVAIVDPRLTGYPLTSVIHVFKIAMMCVEEEAAARPTMREVVHMLTNPPKSVANLIAF
